Measurements reported in PubChem BioAssay AID743121 (NCATS, 2013).

Assay: 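Genes whose silencing strengthens cell killing by camptothecin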 (primary screen)
Cell system: MDA-MB-231 cells, a human breast cancer line
Reagents: single siRNA against human genes, 20 nM siRNA (0.8 pmol per well)
Duration: 120 h (drug added 48 h after transfection, read 72 h later)
Treatment: camptothecin 20 nM (about EC30) for 72 h; vehicle 0.1% DMSO in parallel plates
Detection: 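CellTiter-Glo ATP signal, scaled to control siRNA as percent viability; sensitisation given as log2 of untreated divided by camptothecin-treated viability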
Scale: log2 vehicle/camptothecin viability: higher = stronger sensitisation to camptothecin; viability with camptothecin: higher = more viable cells
Rule for the call: 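Active genes have an RSA gene-level p-value below 0.001, computed from the ratios of their separate siRNAs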
In all, the deposit lists about 26,000 reagents; shown is a part drawn at random. 167 of all reagents (0.63%) count as active. 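Calls are per gene from RSA p-values that are not deposited; an individual active-marked siRNA can sensitise only weakly.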 A number with no mark means an inactive call. The numbers tell different reagents against one gene apart. Further read-outs or replicates are left out here.

With CBR3 #1, how do the results read?
log2 vehicle/camptothecin viability: -0.177; viability with camptothecin (% of control): 64.3

What is on record for CBR3 #2?
log2 vehicle/camptothecin viability: -0.162; viability with camptothecin (% of control): 83.7

With CBR3 #3, what was measured?
log2 vehicle/camptothecin viability: -0.23; viability with camptothecin (% of control): 101

For CBR3 #4, what does the deposit list?
log2 vehicle/camptothecin viability: -0.0738; viability with camptothecin (% of control): 67.1

With CDKL1 #1, how do the results read?
log2 vehicle/camptothecin viability: 0.0995; viability with camptothecin (% of control): 106

With CDKL1 #2, what was measured?
log2 vehicle/camptothecin viability: -0.564; viability with camptothecin (% of control): 25.5

With CDKL1 #3, how do the results read?
log2 vehicle/camptothecin viability: -0.0171; viability with camptothecin (% of control): 78.6

With CDKL1 #4, what was measured?
log2 vehicle/camptothecin viability: -0.189; viability with camptothecin (% of control): 81.2

What is on record for IFNA17 #1?
log2 vehicle/camptothecin viability: -0.279; viability with camptothecin (% of control): 64.4

For IFNA17 #2, how do the results read?
log2 vehicle/camptothecin viability: -0.51; viability with camptothecin (% of control): 44.2

With PDE4D #1, what was measured?
log2 vehicle/camptothecin viability: -0.455; viability with camptothecin (% of control): 110

For PDE4D #2, what does the deposit list?
log2 vehicle/camptothecin viability: -0.0638; viability with camptothecin (% of control): 80.8

With PDE4D #3, how do the results read?
log2 vehicle/camptothecin viability: -0.0106; viability with camptothecin (% of control): 87.1

With PDE4D #4, what was measured?
log2 vehicle/camptothecin viability: -0.479; viability with camptothecin (% of control): 111

For LAMA4 #1, how do the results read?
log2 vehicle/camptothecin viability: 0.264; viability with camptothecin (% of control): 72.3

How did the screen score LAMA4 #2?
log2 vehicle/camptothecin viability: 0.0454; viability with camptothecin (% of control): 102

For LAMA4 #3, how do the results read?
log2 vehicle/camptothecin viability: -0.32; viability with camptothecin (% of control): 119

How did the screen score LAMA4 #4?
log2 vehicle/camptothecin viability: 0.0147; viability with camptothecin (% of control): 101

How did the screen score SLC24A3 #1?
log2 vehicle/camptothecin viability: -0.197; viability with camptothecin (% of control): 91.7

What did the screen give for SLC24A3 #2?
log2 vehicle/camptothecin viability: -0.167; viability with camptothecin (% of control): 40.1

With SLC24A3 #3, how do the results read?
log2 vehicle/camptothecin viability: -0.584; viability with camptothecin (% of control): 51.2

With SLC24A3 #4, how do the results read?
log2 vehicle/camptothecin viability: 0.0892; viability with camptothecin (% of control): 86.1

What is on record for TREML2 #1?
log2 vehicle/camptothecin viability: -0.41; viability with camptothecin (% of control): 70.6

How did the screen score TREML2 #2?
log2 vehicle/camptothecin viability: 0.93; viability with camptothecin (% of control): 36.3

For TREML2 #3, what does the deposit list?
log2 vehicle/camptothecin viability: -0.135; viability with camptothecin (% of control): 31.2

Which result is listed for TREML2 #4?
log2 vehicle/camptothecin viability: -0.352; viability with camptothecin (% of control): 90.9

4 entries from above, reduced to “log2 vehicle/camptothecin viability”:
SLC24A3 #1 = -0.197
SLC24A3 #2 = -0.167
SLC24A3 #3 = -0.584
SLC24A3 #4 = 0.0892
